Measurements from the supplement of paper PMC12819154, “High-throughput peptide-centric local stability assay extends protein–ligand identification to membrane proteins, tissues and bacteria” (Nature Structural & Molecular Biology, 2025).
The other results are listed elsewhere or left out. Most entries show no effect beyond the scatter of the controls.

The chains behind the UniProt entries cited, without tags or fusion partners. Where a name states a change or a piece, a line headed by the entry shows the natural chain unless it says otherwise.
UniProt Q9NZT2: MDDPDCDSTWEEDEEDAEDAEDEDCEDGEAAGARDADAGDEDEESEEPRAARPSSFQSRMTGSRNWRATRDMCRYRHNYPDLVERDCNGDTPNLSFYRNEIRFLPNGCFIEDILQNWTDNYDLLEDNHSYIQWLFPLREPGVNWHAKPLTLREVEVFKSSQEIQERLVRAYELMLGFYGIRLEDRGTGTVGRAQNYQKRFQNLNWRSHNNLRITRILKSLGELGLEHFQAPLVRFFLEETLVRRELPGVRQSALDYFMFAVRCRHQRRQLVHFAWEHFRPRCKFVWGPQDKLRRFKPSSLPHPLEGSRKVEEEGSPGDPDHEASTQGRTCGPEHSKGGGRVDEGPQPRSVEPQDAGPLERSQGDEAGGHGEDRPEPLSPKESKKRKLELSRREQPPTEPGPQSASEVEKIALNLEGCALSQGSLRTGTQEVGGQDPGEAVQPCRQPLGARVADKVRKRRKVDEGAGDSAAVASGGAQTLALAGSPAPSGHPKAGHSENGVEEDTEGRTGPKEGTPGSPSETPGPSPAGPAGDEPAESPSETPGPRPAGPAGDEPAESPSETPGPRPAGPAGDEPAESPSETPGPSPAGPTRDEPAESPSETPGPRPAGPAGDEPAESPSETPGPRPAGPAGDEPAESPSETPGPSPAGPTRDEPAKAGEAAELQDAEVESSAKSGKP
UniProt Q9P0J7: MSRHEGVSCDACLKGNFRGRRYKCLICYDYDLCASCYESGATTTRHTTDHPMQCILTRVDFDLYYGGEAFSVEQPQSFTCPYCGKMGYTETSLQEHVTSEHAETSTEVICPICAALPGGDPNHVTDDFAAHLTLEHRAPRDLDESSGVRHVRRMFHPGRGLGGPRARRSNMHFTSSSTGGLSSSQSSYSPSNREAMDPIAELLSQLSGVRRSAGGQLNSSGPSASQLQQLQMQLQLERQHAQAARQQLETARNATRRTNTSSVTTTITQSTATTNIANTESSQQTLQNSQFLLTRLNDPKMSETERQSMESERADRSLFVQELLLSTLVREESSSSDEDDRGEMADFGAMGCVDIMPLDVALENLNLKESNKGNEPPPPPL
UniProt Q9UJY5: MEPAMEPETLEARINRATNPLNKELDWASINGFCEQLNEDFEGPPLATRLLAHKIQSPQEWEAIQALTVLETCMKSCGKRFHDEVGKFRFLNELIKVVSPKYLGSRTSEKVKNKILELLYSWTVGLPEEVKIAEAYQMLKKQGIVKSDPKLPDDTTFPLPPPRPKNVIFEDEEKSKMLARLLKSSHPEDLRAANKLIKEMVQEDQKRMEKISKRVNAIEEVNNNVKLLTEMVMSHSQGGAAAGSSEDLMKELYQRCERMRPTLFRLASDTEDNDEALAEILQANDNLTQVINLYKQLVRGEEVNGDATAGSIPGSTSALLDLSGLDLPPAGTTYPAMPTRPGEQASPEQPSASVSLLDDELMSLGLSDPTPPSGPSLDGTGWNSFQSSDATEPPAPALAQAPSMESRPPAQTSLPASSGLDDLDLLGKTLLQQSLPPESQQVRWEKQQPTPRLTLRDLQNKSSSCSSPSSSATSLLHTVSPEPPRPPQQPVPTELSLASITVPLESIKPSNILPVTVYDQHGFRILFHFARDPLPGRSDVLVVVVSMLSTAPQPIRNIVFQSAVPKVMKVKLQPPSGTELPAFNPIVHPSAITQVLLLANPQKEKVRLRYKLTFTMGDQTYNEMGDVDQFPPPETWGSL
UniProt Q9P2E5: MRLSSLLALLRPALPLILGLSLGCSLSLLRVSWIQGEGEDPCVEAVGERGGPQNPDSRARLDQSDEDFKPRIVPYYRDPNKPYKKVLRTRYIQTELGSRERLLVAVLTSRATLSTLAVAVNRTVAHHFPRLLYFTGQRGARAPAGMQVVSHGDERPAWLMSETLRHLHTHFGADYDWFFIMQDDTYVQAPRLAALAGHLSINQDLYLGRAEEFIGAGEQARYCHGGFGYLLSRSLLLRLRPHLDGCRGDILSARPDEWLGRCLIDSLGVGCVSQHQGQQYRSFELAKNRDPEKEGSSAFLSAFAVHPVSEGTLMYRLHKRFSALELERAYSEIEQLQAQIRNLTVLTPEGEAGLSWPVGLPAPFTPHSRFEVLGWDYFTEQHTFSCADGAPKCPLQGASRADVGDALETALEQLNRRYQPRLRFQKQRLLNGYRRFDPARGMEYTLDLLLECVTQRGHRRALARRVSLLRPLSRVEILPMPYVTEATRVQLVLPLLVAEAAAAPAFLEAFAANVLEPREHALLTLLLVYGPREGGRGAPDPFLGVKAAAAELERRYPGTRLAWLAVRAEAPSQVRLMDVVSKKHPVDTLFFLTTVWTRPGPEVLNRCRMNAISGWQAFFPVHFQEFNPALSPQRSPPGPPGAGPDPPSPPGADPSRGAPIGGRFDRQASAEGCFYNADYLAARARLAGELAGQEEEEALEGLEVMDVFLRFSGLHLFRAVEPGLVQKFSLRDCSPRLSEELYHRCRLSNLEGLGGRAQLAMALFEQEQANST
UniProt Q9UGV2: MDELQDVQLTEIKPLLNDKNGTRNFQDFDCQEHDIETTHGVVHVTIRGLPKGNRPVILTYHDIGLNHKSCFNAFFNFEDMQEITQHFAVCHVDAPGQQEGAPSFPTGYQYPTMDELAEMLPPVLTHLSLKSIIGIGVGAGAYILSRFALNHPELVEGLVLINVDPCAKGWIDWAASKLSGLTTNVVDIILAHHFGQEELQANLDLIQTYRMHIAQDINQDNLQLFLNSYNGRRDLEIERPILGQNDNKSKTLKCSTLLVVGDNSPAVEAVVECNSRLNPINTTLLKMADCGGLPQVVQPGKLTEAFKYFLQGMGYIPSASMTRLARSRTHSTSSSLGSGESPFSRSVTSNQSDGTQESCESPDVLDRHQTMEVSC
UniProt Q9P1Z2: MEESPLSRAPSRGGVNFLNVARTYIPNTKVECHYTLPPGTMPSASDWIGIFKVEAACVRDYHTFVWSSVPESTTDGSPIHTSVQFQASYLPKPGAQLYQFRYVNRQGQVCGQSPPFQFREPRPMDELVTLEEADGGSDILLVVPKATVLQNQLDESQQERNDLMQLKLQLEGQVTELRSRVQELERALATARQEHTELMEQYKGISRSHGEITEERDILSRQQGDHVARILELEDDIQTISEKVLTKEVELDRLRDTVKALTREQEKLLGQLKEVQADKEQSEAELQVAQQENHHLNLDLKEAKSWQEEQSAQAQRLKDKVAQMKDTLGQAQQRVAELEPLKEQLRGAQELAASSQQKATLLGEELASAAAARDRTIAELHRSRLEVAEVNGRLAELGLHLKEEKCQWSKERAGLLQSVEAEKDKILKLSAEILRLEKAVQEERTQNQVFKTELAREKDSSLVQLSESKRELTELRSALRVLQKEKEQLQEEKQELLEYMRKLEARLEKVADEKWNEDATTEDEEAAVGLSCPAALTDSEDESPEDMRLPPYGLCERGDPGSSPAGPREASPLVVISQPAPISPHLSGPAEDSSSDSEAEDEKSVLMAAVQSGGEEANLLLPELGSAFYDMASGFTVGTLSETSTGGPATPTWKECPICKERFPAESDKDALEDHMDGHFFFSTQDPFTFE
UniProt Q9UIJ7: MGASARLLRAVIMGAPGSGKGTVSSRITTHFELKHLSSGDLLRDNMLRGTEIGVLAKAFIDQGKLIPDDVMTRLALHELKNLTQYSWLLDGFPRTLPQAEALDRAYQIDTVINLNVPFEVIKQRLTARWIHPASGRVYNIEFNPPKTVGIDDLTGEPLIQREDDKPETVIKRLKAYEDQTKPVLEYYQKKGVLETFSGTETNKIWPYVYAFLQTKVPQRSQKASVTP
UniProt Q9UHV9, whole entry: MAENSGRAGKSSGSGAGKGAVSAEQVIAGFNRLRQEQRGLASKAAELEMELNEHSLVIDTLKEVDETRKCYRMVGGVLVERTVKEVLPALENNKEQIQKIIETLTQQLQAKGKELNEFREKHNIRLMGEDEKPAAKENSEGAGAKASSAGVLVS
UniProt Q9P2T1: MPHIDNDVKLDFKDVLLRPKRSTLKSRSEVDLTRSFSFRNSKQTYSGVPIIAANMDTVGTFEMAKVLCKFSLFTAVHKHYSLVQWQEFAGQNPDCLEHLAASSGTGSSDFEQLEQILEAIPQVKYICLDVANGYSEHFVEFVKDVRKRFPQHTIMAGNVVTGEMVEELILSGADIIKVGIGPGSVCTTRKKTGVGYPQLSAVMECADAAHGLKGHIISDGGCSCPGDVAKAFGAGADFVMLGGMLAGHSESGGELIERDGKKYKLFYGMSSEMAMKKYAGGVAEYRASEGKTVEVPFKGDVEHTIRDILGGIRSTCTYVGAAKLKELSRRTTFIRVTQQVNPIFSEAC
UniProt Q9UBB4: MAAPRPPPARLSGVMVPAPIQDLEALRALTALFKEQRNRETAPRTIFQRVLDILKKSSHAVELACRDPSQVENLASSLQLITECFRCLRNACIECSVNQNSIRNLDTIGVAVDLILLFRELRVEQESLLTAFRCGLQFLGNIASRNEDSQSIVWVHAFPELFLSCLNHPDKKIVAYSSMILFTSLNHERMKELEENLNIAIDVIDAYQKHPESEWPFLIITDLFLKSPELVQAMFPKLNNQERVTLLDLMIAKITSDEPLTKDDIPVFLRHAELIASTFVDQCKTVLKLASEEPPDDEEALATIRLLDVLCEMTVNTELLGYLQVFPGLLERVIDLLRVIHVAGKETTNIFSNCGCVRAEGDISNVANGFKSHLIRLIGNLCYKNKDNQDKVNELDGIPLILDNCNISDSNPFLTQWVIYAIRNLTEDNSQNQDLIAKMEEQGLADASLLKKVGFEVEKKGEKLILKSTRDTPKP
UniProt Q9UG01, whole entry: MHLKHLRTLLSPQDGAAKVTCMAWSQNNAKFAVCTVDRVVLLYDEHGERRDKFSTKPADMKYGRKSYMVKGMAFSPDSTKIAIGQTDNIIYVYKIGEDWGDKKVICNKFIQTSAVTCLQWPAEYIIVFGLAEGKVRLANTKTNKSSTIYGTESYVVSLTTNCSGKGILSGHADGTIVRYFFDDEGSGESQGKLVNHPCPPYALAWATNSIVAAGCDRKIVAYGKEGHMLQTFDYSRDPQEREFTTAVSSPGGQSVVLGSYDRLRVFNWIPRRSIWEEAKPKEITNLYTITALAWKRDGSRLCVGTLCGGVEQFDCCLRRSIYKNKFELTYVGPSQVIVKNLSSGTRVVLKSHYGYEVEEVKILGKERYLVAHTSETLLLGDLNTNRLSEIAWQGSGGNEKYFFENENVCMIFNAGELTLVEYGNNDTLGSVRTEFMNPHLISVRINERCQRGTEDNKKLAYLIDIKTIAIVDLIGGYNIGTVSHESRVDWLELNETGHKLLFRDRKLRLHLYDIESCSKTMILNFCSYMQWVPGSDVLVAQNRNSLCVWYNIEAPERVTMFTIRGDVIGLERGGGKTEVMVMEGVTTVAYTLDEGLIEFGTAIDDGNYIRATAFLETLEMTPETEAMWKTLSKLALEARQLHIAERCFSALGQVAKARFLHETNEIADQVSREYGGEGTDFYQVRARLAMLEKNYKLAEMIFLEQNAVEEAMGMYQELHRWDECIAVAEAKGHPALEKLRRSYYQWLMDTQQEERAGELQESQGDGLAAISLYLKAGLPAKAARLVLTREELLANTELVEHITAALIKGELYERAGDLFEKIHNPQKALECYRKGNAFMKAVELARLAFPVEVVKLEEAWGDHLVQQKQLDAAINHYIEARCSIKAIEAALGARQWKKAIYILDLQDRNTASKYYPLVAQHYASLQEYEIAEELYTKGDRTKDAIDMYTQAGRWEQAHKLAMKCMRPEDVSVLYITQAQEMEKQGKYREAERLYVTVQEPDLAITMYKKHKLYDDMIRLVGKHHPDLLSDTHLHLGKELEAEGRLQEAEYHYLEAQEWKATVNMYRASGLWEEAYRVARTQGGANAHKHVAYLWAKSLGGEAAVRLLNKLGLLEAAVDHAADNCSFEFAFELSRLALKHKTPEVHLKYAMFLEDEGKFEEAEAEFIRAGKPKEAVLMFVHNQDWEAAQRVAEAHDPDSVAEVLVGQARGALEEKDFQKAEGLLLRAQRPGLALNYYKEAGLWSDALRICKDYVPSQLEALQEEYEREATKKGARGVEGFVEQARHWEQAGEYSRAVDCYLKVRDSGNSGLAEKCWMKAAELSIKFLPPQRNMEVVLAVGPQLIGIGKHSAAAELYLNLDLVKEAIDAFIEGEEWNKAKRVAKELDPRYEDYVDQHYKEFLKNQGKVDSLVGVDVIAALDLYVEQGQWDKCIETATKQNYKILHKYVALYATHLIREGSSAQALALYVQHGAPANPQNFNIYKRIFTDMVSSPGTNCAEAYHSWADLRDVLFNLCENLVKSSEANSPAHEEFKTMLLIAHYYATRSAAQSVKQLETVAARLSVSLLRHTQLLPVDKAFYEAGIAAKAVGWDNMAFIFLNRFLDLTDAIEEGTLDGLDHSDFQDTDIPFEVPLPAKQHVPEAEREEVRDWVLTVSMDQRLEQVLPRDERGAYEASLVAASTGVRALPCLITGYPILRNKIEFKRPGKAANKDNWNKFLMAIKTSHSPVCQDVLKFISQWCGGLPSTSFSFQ

compound: CN[C@@H]1C[C@H]2O[C@@](C)([C@@H]1OC)n1c3ccccc3c3c4c(c5c6ccccc6n2c5c31)C(=O)NC4 [staurosporine]; experiment: log2 fold change of tryptic peptide abundance, ligand vs vehicle (limited proteolysis) (log2 ratio); higher = more trypsin-susceptible (destabilized); details: ligand concentration: 20 uM; sample: K562 cleared lysate; digestion: 4 min, 22 C (HT-PELSA RT4min, Orbitrap Astral)

| Target | log2 fold change |
| --- | --- |
| LNPEP (peptide sequence: LLGMSFMNR, peptide start residue: 76) (UniProt Q9UIQ6) | 0.0865 |
| TMEM9 (peptide sequence: SMAAAAASLGGPR, peptide start residue: 137) (UniProt Q9P0T7) | 0.135 |
| OGFR (peptide sequence: CKFVWGPQDK, peptide start residue: 282) (UniProt Q9NZT2) | 0.333 |
| KCMF1 (peptide sequence: QSMESERADR, peptide start residue: 307) (UniProt Q9P0J7) | 0.547 |
| GGA1 (peptide sequence: NVIFEDEEK, peptide start residue: 166) (UniProt Q9UJY5) | -0.102 |
| CHPF2 (peptide sequence: AVEPGLVQK, peptide start residue: 719) (UniProt Q9P2E5) | 0.287 |
| NDRG3 (peptide sequence: GNRPVILTYHDIGLNHK, peptide start residue: 52) (UniProt Q9UGV2) | 0.198 |
| SACS (peptide sequence: NADYNITTR, peptide start residue: 3040) (UniProt Q9NZJ4) | 0.488 |
| CALCOCO1 (peptide sequence: QQGDHVAR, peptide start residue: 222) (UniProt Q9P1Z2) | 1.03 |
| AK3 (peptide sequence: AYEDQTKPVLEYYQK, peptide start residue: 175) (UniProt Q9UIJ7) | -0.53 |
| FAM8A1 (peptide sequence: GPPTTAVPCPR, peptide start residue: 30) (UniProt Q9UBU6) | -0.19 |
| PUF60 (peptide sequence: KYAMEQSIK, peptide start residue: 72) (UniProt Q9UHX1) | 0.236 |
| CNOT8 (peptide sequence: MKELFFEDSIDDAK, peptide start residue: 241) (UniProt Q9UFF9) | -0.15 |
| SLC12A6 (peptide sequence: VHMTWTK, peptide start residue: 1045) (UniProt Q9UHW9) | -0.566 |
| PFDN2 (peptide sequence: LMGEDEKPAAKENSEGAGAK, peptide start residue: 126) (UniProt Q9UHV9) | -0.309 |
| GMPR2 (peptide sequence: YAGGVAEYR, peptide start residue: 278) (UniProt Q9P2T1) | -0.147 |
| SUCLA2 (peptide sequence: GKGTFESGLK, peptide start residue: 107) (UniProt Q9P2R7) | 0.252 |
| ATXN10 (peptide sequence: VTLLDLMIAK, peptide start residue: 244) (UniProt Q9UBB4) | 0.264 |
| GPN3 (peptide sequence: STYCATMVQHCEALNR, peptide start residue: 17) (UniProt Q9UHW5) | -0.233 |
| ZNRD1 (peptide sequence: CGHEGMAYHTR, peptide start residue: 90) (UniProt Q9P1U0) | 0.132 |
| UVRAG (peptide sequence: HHTSSAIPVPK, peptide start residue: 469) (UniProt Q9P2Y5) | 0.343 |
| SEC63 (peptide sequence: KKPTPVLLPQSK, peptide start residue: 534) (UniProt Q9UGP8) | -0.138 |
| POLK (peptide sequence: HTLDIFFK, peptide start residue: 863) (UniProt Q9UBT6) | 0.178 |
| DAXX (peptide sequence: GTRYPEVNR, peptide start residue: 261) (UniProt Q9UER7) | 0.497 |
| BICRA (peptide sequence: RVSPSAEMVMIDR, peptide start residue: 1165) (UniProt Q9NZM4) | 0.546 |
| UniProt Q9UK39 (peptide sequence: TNQVAIAQTLECKESGR, peptide start residue: 262) | -0.292 |
| IFT172 (peptide sequence: HVAYLWAK, peptide start residue: 1089) (UniProt Q9UG01) | 0.537 |
| UniProt Q9UBD5 (peptide sequence: ELYCTCLEK, peptide start residue: 437) | 0.941 |

A second format for some results above:
Target	log2 fold change
ATXN10 (peptide sequence: VTLLDLMIAK, peptide start residue: 244) (UniProt Q9UBB4)	0.264
GPN3 (peptide sequence: STYCATMVQHCEALNR, peptide start residue: 17) (UniProt Q9UHW5)	-0.233
